The list shows a part of the results.
molecular target: OsWRKY34 (Oryza sativa, UniProt Q0JBA9 1-250); assay: protein-binding microarray (RPBM); PBS, 2% BSA, 51.3 ng/ul salmon testes DNA, 50 uM zinc acetate, 200 nM TF, 25 C, 1 h; high values mean tight binding; conditions: protein: recombinant; tags: N-terminal polyhistidine and DsRed monomer fusion (pET32a); label: CyDye5-dUTP incorporated in the synthesized complementary strand; 3' TTTTT single-stranded linker to array surface; dsDNA, one strand shown
Method in brief: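 Transcription factors were made in E. coli BL21-CodonPlus as N-terminal fusions to a polyhistidine tag and DsRed, then purified on Ni–NTA. After primer extension with Cy5-dUTP and blocking with 2% BSA, a custom Agilent array was exposed for 1 h at 25 °C to 200 nM protein in PBS, 2% BSA, salmon testes DNA and 50 µM zinc acetate. Washed arrays were scanned on an Axon 4000B, and the binding signal is per-feature fluorescence intensity in arbitrary units.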

The chains behind the UniProt entries cited, without tags or fusion partners.
UniProt Q0JBA9, entry or part of it: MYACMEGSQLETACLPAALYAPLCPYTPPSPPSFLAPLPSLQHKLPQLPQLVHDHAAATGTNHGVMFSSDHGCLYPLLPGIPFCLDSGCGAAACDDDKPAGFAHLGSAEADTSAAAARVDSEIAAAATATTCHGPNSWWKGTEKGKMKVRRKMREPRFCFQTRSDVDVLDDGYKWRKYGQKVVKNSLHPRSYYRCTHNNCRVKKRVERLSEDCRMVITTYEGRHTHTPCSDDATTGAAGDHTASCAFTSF

Going from “GGTAATTCGGTTCTGTTTTATTAACGTGTGTGTACTGATTCGGAGTCACCTAGTGCAG” to “CTCCCATCGCCTCCGCCGACGTCGACCGCCTCCTTTGCTGCGGAGTCACCTAGTGCAG”, the binding signal falls from 15400 fluorescence intensity (a.u.) to 8900 fluorescence intensity (a.u.).

Compared with “CTCTTTTCTATGTCTTTGTTAGCCGTTGCTTGGTCCACGACGGAGTCACCTAGTGCAG”, “GCAGGCTCACTCACCTCGCTTCCTGTCCGACATCGCGCCGCGGAGTCACCTAGTGCAG” is lower in binding signal: 12500 fluorescence intensity (a.u.) for the first, 9220 fluorescence intensity (a.u.) for the second.

Compared with “ACTCCTCTCCAGTCTCCCCGCCGCTCCGCATCCCGCAGCCCGGAGTCACCTAGTGCAG”, “CTCGCTCTCTCACCCGACCCAACTCATCAGTCGTCGCTTTCGGAGTCACCTAGTGCAG” is higher in binding signal: 8400 fluorescence intensity (a.u.) for the first, 11100 fluorescence intensity (a.u.) for the second.

Going from “CTACGTGAGCTCGTTGCTGTGTCTCCTCTCTCTGCATCGCCGGAGTCACCTAGTGCAG” to “TTTCACCCATAAAGCGGAAGTGGATTTTTGTCGGGACATCCGGAGTCACCTAGTGCAG”, the binding signal falls from 9690 fluorescence intensity (a.u.) to 8740 fluorescence intensity (a.u.).

Compared with “ACACCATCTGCACACCTGCACCTGCACCTGCACGGCCGTGCGGAGTCACCTAGTGCAG”, “GCCGTCCATCGCCGCCTCGACCCCGCCGCCGTCCATCGCCCGGAGTCACCTAGTGCAG” is higher in binding signal: 9960 fluorescence intensity (a.u.) for the first, 13100 fluorescence intensity (a.u.) for the second.

Going from “TCTGAATCCTCTTATTTTCCACATGCTGCTTCTTGAGCCGCGGAGTCACCTAGTGCAG” to “TGCACAGCTGCACTCCTGGAATAACCACCCTCGCACCGATCGGAGTCACCTAGTGCAG”, the binding signal falls from 10400 fluorescence intensity (a.u.) to 8150 fluorescence intensity (a.u.).

Compared with “TCTCGCGTGCCATAACTATTTTCTCATCCAATCCGCACGTCGGAGTCACCTAGTGCAG”, “CCCCACATCATAACTGTCACTTTTCCCTCAACGTGGGCCTCGGAGTCACCTAGTGCAG” is lower in binding signal: 8980 fluorescence intensity (a.u.) for the first, 8250 fluorescence intensity (a.u.) for the second.

Going from “ATCCAGGGGCGGGCCCACTATAATTCGTGGGTATTCAAATCGGAGTCACCTAGTGCAG” to “GGTTGTTCAAGGCGGCCGCGCTTCCACGCCCCACGCACCGCGGAGTCACCTAGTGCAG”, the binding signal rises from 9790 fluorescence intensity (a.u.) to 10000 fluorescence intensity (a.u.).

Going from “TTCCTGTGGTCTAATCAAACGGTCATTCCTGTGTTTTTTTCGGAGTCACCTAGTGCAG” to “GGCATTTCACAGGCAACATTTAAATTTCCGCATAATCCGGCGGAGTCACCTAGTGCAG”, the binding signal falls from 10000 fluorescence intensity (a.u.) to 8900 fluorescence intensity (a.u.).

Compared with “TGGGCTTTGTGTTTGATATGGGGCCGATGAAGTTTTTTTTCGGAGTCACCTAGTGCAG”, “GCTTTCGTAGTCGCTTTGCTCGATCGCTCCTCTCGATCCCCGGAGTCACCTAGTGCAG” is lower in binding signal: 11000 fluorescence intensity (a.u.) for the first, 9250 fluorescence intensity (a.u.) for the second.

Compared with “GATCATGTGAGCTTCTCATCAAGGGGTTTCTCTTCTATTCCGGAGTCACCTAGTGCAG”, “CTTTTACTGCACAGAACTTGGTCGAATTGCAAGCCACTTTCGGAGTCACCTAGTGCAG” is lower in binding signal: 8880 fluorescence intensity (a.u.) for the first, 8140 fluorescence intensity (a.u.) for the second.

Compared with “TACTATAGTTTATTTTCCAGCGTTGTCTTTAAATTGTTAACGGAGTCACCTAGTGCAG”, “AGATTTTAAACTTTTTGCTCTGTCATGCATGCATAAATATCGGAGTCACCTAGTGCAG” is higher in binding signal: 8240 fluorescence intensity (a.u.) for the first, 9500 fluorescence intensity (a.u.) for the second.

First: CTTCAAGTCTATCTCTTTCATCCGATTTATGCATTTTCTCCGGAGTCACCTAGTGCAG
Second: TTTGCCTACATTTAATGTTTTATACATATGTCCAAACATTCGGAGTCACCTAGTGCAG
The binding signal of the first is higher: 9000 fluorescence intensity (a.u.) for the first, 8200 fluorescence intensity (a.u.) for the second.

First: AACATTGTTTTGCATCGTTCAGATATATCTCTGATCTTTTCGGAGTCACCTAGTGCAG
Second: AAATGCCAAATGACAACTTGCCAACTTTTTCTACTATTGTCGGAGTCACCTAGTGCAG
The binding signal of the first is lower: 8840 fluorescence intensity (a.u.) for the first, 8860 fluorescence intensity (a.u.) for the second.

Going from “TGATGACTTTTTTGCATGTCCCTTATTTAATCTTAATTTTCGGAGTCACCTAGTGCAG” to “GAGGTGGCTTTGGCGGCGGAGTGGGAGGCGGTGGTGGTGGCGGAGTCACCTAGTGCAG”, the binding signal rises from 9280 fluorescence intensity (a.u.) to 10000 fluorescence intensity (a.u.).

Compared with “TTAGGTTGATGTGATGGCTAATTTATACAATAATATCTTACGGAGTCACCTAGTGCAG”, “TTCACATTTCTCACATACATCCACTACTTATTCAATCACACGGAGTCACCTAGTGCAG” is lower in binding signal: 9430 fluorescence intensity (a.u.) for the first, 8390 fluorescence intensity (a.u.) for the second.

First: TTGTTCCTCTTCCGCCGCCGGACTTGTTTCCTCTCCCGCGCGGAGTCACCTAGTGCAG
Second: TACTAGCTTCTAATTACATTTGCTCCTAACTTTTCTTCAACGGAGTCACCTAGTGCAG
The binding signal of the first is higher: 10300 fluorescence intensity (a.u.) for the first, 9510 fluorescence intensity (a.u.) for the second.

Compared with “GTGTTGAAAAACCTTGTCCGATCCTACATGTATGCTTTACCGGAGTCACCTAGTGCAG”, “CTTTTCATCTTCTTGACGACTTGGTTGTTTGATTCATTTACGGAGTCACCTAGTGCAG” is lower in binding signal: 10300 fluorescence intensity (a.u.) for the first, 8830 fluorescence intensity (a.u.) for the second.

First: AACCCTCTTGACCCTTGTCGTCTCCGCACCGCAGCCGCCGCGGAGTCACCTAGTGCAG
Second: CCACGTCTCCGTCTGTTTGCGGCTCAAGGTTTCAGCGATGCGGAGTCACCTAGTGCAG
The binding signal of the first is lower: 9750 fluorescence intensity (a.u.) for the first, 10800 fluorescence intensity (a.u.) for the second.

Compared with “CTCTCTATCTCTATCCATTCTTCTCGCATGCCACTGACCACGGAGTCACCTAGTGCAG”, “ATGAAGACACAAATCCACTCCCTACTTGCTTTCACTGTCACGGAGTCACCTAGTGCAG” is lower in binding signal: 9770 fluorescence intensity (a.u.) for the first, 8400 fluorescence intensity (a.u.) for the second.

Compared with “GGCGCGGGAAGCGGGTGGGGCCATATGGCAGCGAGACAGCCGGAGTCACCTAGTGCAG”, “TCTGCTGCTACTGCTCCTCTCCTTCCATGGTGGTCGCCCACGGAGTCACCTAGTGCAG” is higher in binding signal: 9310 fluorescence intensity (a.u.) for the first, 10100 fluorescence intensity (a.u.) for the second.

Going from “GCGTCTCTACTCCTCTCCCTGCATCTGGTATACGTATCTTCGGAGTCACCTAGTGCAG” to “CCTCTGGCTACTTCAGCTGCTGCCTGCCAAGCAACACACTCGGAGTCACCTAGTGCAG”, the binding signal falls from 10400 fluorescence intensity (a.u.) to 8280 fluorescence intensity (a.u.).

Going from “CACCCTGCGTACGTACTACATGTTAGCCTTATCACACAATCGGAGTCACCTAGTGCAG” to “CACTCCACTCCAGTCCTTGTCCATTGCCAATTCACCCCTCCGGAGTCACCTAGTGCAG”, the binding signal falls from 15900 fluorescence intensity (a.u.) to 12000 fluorescence intensity (a.u.).

Going from “GCCTAGGTCTACAGTTCACTCGCTATCCACGCACAGCCCGCGGAGTCACCTAGTGCAG” to “CCCGTCATTGACTACGGTTGACCAAAGTTGAAACGGGGACCGGAGTCACCTAGTGCAG”, the binding signal rises from 8830 fluorescence intensity (a.u.) to 9440 fluorescence intensity (a.u.).

Going from “ATTATATTTTAGGTCGCATTTTGATTCTTTTCATGTAATCCGGAGTCACCTAGTGCAG” to “ACCTGTTCTTCTGGCGCCCCAACCACAGAGTTAAAAGGTGCGGAGTCACCTAGTGCAG”, the binding signal rises from 8660 fluorescence intensity (a.u.) to 9260 fluorescence intensity (a.u.).

First: TATGTGTGTTCTAGTTGTTTGATGCTTTCTTAAGATTTAGCGGAGTCACCTAGTGCAG
Second: TCATTGCCCTGTCGCTGACCCTGCGCACCGCCGGCTTCCTCGGAGTCACCTAGTGCAG
The binding signal of the first is lower: 10300 fluorescence intensity (a.u.) for the first, 11600 fluorescence intensity (a.u.) for the second.

First: AGGCGAGCGAGGCGGGTGGGCGGGGAGCGAACCAACGACGCGGAGTCACCTAGTGCAG
Second: CTATTATCCTTTGCATGCCCCTCTCCAGCTGCTTCATCTGCGGAGTCACCTAGTGCAG
The binding signal of the first is higher: 8840 fluorescence intensity (a.u.) for the first, 8110 fluorescence intensity (a.u.) for the second.
